Assay [1] addresses RH2C-HA (Trypanosoma brucei (Lister strain 427)). In words: affinity purification with mass spectrometry; co-IP of RH2A-HA or RH2C-HA from PCF lysate with anti-HA antibody-Sepharose (3 h, 4°C, IP buffer: 150 mM NaCl, 20 mM Tris-HCl pH 8.0, 10 mM MgCl2, 0.25% Igepal CA-630); WT cells as control; MS of eluates, four biological replicates.
In assay [2] the target is RH2A-HA (Trypanosoma brucei (Lister strain 427)). Described as above.

Results are given in words; binding and its absence hold for the method and conditions named. Binding seen in cells or lysates may run through a third protein. Here binding means that the protein was enriched with, or labelled near, the bait; the list need not be complete.

B1: DOT1A (enzyme, UniProt Q581Z0 1-295)
chain: MPGLLISRKRTRSEASGKPIGEIKCVAENRVQALKPPLGELVPKGELGAGTPHEPYNLPLRGNPNKSGCHHCLADQCHCVFFERLLDATFRRLDIKRITEVSGSRHLCAKSLLPTFVSRMVRLMEITSEDTFYDLGCGNGSILFQVAFLTGARCVGIEISEHNAKVAKKAWEVIRPELEGSSGRSMPEVNIITSDMTKILADERLFESERGKTVILLSNLLFPKSLTHYLSERFRRVPSGTRILCFDDLYPHSRSVAAIRDPEAFRLFAMTDYRWQECSVEWCTRDGPFFIHRRR
For B1, the binding entry in assay [1] and in assay [2] was “binds” each time.

Source of the values: PMC8576533.
